Assay results published in patent publication US20250215091A1, “Anti-GAL3 Antibodies and Compositions” (Les Laboratoires Servier, priority 2022, published 2025).
No constants are given. Whether binding was seen depends on the method and setting. Some entries that bind do so weakly or less than the wild type.

Chains of the proteins cited; added tags and fusions are not shown. Lines headed by an entry give the natural chain unless they say otherwise; changes in a name come on top.
UniProt P17931: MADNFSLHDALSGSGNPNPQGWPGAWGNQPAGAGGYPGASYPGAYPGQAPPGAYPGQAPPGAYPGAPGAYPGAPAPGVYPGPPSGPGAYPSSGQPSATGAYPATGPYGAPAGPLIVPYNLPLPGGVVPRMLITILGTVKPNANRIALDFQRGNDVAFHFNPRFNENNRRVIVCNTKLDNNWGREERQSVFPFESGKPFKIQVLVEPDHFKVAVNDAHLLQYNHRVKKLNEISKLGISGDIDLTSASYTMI
UniProt P16110: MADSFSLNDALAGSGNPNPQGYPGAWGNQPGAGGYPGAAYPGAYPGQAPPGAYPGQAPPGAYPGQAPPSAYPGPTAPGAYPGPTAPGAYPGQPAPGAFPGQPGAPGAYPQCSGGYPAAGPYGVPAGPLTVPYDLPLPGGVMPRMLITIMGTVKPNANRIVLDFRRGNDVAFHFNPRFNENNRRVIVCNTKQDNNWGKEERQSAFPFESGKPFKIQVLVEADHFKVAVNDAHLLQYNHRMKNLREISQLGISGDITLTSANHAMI

Legend:
[1] = molecular target: full length human Galectin-3 (human) (UniProt P17931); assay: ELISA, immobilized antigen, purified IgG 15-20 µg/mL
[2] = molecular target: full length mouse Galectin-3 (mouse) (UniProt P16110); assay: as above
[3] = molecular target: full length mouse Galectin-3 (mouse) (UniProt P16110); assay: dose-response ELISA on immobilized m-Gal3-FL
[4] = molecular target: T1, CRD domain of human Galectin-3 (human, UniProt P17931 106-250); assay: ELISA, purified IgG 15-20 µg/mL; Gal3 of this experiment is Hu-Gal3-CRD (legend of FIG. 4)
T1 construct: Histidine-tagged; also called hu-Gal3-CRD; Hu-Gal3-CRD

[5] = molecular target: full length human Galectin-3 (human) (UniProt P17931); assay: dose-response ELISA on immobilized Hu-Gal3-FL
[6] = molecular target: full length human Galectin-3 (human) (UniProt P17931); assay: dose-response ELISA on His-tag-immobilised antigen (3 µg/mL), 3.3-fold serial dilution of IgG, anti-Fab.HRP, OD 450 nm [panel B12]
[7] = molecular target: full length mouse Galectin-3 (mouse) (UniProt P16110); assay: as above
[8] = molecular target: T1, CRD domain of human Galectin-3; assay: ELISA on immobilised antigen (3 µg/mL), purified IgG at 15-20 µg/mL, anti-Fab.HRP, OD 450 nm
[9] = molecular target: T1, CRD domain of human Galectin-3; assay: ELISA on His-tag-immobilised antigen (3 µg/mL), purified IgG at 15-20 µg/mL, anti-Fab.HRP, OD 450 nm
[10] = molecular target: full length human Galectin-3 (human) (UniProt P17931); assay: as above
[11] = molecular target: full length mouse Galectin-3 (mouse) (UniProt P16110); assay: as above
[12] = molecular target: T1, CRD domain of human Galectin-3; assay: ELISA on His-tag-immobilised antigen (3 µg/mL), periplasmic extract with scFv, anti-scFvTag.HRP, OD 450 nm
[13] = molecular target: full length human Galectin-3 (human) (UniProt P17931); assay: as above
[14] = molecular target: full length mouse Galectin-3 (mouse) (UniProt P16110); assay: as above
[15] = molecular target: full length human Galectin-3 (human) (UniProt P17931); assay: ELISA, immobilized antigen, periplasmic scFv extract
[16] = molecular target: full length mouse Galectin-3 (mouse) (UniProt P16110); assay: as above
[17] = molecular target: full length human Galectin-3 (human) (UniProt P17931); assay: competitive ELISA: ASF (30 µg/mL) binding to immobilised Hu-Gal3-FL (3 µg/mL) with periplasmic extract with scFv; sheep anti-ASF and anti-sheep.HRP; signal in % of the irrelevant scFv
[18] = molecular target: full length human Galectin-3 (human) (UniProt P17931); assay: dose-response ELISA on His-tag-immobilised antigen (3 µg/mL), 3.3-fold serial dilution of IgG, anti-Fab.HRP, OD 450 nm [panel H10]
[19] = molecular target: full length mouse Galectin-3 (mouse) (UniProt P16110); assay: as above
[20] = molecular target: T1, CRD domain of human Galectin-3; assay: competitive ELISA: ASF (8 µg/mL) binding to immobilised Hu-Gal3-CRD (1 µg/mL) with serial dilution of IgG; HRP-labeled anti-ASF antibody; Binding [%] [panel H10 + ASF]

Measured: binding

B1: anti-Gal3 antibody B12 (antibody, V domains shown)
VH: EVQLVESGGSLVKPGGSLRLSCAASGFTFSNDDMNWVRQAPGKGLEWISSIDGSSRSIYYADFVKGRFTISRDNAKNSLYLQMNSLRAEDTAVYYCVRSSGYSGGGMDVWGRGTLVTVSS
VL: QSVLTQPASVSGSPGQSITISCAGTSSDVGGSYNVAWYQQHPGKAPKLMIYSDSYRPSGVSNRFSGSKSGNTASLTISGLQAEDEADYYCSSYTSNSARVFGGGTKLEIK
binds: [1] | [2] | [3] | [4] | [5] | [6] | [7] | [8] | [9] | [10] | [11]

B2: anti-Gal3 scFv H10 (scFv, V domains shown, not shown: small tags and cut ends)
VH: EVQLVESGGSLVKPGGSLRLSCAASGFTFSNYYMNWVRQAPGKGLEWISYINGASRDISYADFVKGRFTISRDNAKNSLYLQMNSLRAEDTAVYYCVRSSYGYSNYGSGMDVWGRGTLVTVSS
VL: QSVLTQPASVSGSPGQSITISCAGTSSDVGGSYNVAWYQQHPGKAPKLMIYNDANRPSGVSNRFSGSKSGNTASLTISGLQAEDEADYYCSSNTADSTRVFGGGTKLEIK
notes: Periplasmic extract from E. coli; also called H10 (scFv)
binds: [12] | [13] | [14] | [15] | [16] | [17]

B3: anti-Gal3 antibody H10 (antibody, V domains shown)
VH: EVQLVESGGSLVKPGGSLRLSCAASGFTFSNYYMNWVRQAPGKGLEWISYINGASRDISYADFVKGRFTISRDNAKNSLYLQMNSLRAEDTAVYYCVRSSYGYSNYGSGMDVWGRGTLVTVSS
VL: QSVLTQPASVSGSPGQSITISCAGTSSDVGGSYNVAWYQQHPGKAPKLMIYNDANRPSGVSNRFSGSKSGNTASLTISGLQAEDEADYYCSSNTADSTRVFGGGTKLEIK
binds: [1] | [2] | [18] | [19] | [4] | [8] | [20] | [9] | [10] | [11]

B4: anti-Gal3 scFv B12 (scFv, V domains shown, not shown: small tags and cut ends)
VH: EVQLVESGGSLVKPGGSLRLSCAASGFTFSNDDMNWVRQAPGKGLEWISSIDGSSRSIYYADFVKGRFTISRDNAKNSLYLQMNSLRAEDTAVYYCVRSSGYSGGGMDVWGRGTLVTVSS
VL: QSVLTQPASVSGSPGQSITISCAGTSSDVGGSYNVAWYQQHPGKAPKLMIYSDSYRPSGVSNRFSGSKSGNTASLTISGLQAEDEADYYCSSYTSNSARVFGGGTKLEIK
notes: Periplasmic extract from E. coli; also called B12 (scFv)
binds: [12] | [13] | [14] | [15] | [16] | [17]
